The target in this experiment is T1, Elp3-FLAG (Elongator subunit Elp3) (UniProt Q9H9T3).
T1 sequence: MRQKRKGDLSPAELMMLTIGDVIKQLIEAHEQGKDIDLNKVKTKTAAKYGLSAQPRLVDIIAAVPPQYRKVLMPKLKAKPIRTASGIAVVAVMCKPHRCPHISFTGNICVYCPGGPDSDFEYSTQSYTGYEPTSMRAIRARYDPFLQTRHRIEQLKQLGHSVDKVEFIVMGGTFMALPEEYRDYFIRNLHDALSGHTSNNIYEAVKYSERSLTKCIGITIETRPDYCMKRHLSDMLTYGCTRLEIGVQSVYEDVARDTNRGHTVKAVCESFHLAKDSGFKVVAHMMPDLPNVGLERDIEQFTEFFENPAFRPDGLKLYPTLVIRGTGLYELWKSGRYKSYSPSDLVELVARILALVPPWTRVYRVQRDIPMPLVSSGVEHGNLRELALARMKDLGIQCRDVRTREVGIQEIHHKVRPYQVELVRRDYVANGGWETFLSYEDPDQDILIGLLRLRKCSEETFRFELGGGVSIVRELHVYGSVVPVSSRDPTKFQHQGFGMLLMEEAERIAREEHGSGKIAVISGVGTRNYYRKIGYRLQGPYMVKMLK
Briefly: co-IP; HEK293 cells; Pierce Crosslink immunoprecipitation kit; 4 ug of Myc, Flag or general mouse IgG antibody crosslinked with DSS to protein A/G; Western blot detection with Elp3 and Acly antibodies.

The chains behind the UniProt entries cited, without tags or fusion partners.
UniProt P53396: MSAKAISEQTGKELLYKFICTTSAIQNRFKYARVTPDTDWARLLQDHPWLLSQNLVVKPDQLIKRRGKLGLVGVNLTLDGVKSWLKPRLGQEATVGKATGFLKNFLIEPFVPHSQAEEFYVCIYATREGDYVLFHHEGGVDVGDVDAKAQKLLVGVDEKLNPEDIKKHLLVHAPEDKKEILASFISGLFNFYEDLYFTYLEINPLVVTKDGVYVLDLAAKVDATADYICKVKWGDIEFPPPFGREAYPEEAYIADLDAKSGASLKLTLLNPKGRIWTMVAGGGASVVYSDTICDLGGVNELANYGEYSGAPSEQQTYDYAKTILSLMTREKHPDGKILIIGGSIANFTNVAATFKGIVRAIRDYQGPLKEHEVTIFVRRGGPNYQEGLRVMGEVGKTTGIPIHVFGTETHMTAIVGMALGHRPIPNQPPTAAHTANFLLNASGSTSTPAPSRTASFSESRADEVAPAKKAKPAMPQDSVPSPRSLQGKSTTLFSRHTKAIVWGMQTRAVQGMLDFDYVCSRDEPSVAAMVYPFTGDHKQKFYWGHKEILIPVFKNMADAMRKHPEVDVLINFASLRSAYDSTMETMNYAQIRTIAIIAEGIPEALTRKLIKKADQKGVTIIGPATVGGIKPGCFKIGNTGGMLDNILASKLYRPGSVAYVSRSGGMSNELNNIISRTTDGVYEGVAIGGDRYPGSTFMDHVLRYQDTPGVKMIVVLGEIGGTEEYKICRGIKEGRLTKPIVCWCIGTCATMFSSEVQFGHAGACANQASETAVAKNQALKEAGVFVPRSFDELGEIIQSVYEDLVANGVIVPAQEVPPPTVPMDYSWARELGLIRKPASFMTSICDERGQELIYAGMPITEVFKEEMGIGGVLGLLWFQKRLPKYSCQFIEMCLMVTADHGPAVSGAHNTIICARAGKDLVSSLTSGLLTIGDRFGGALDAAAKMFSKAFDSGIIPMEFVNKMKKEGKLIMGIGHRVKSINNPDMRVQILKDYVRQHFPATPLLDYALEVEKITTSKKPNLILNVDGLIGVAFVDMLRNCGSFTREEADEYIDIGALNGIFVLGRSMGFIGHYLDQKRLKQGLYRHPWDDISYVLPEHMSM

Results are given in words; binding and its absence hold for the method and conditions named. In cells and extracts the contact can be indirect. Some binding calls cover weakened binding; strength is not graded here. Sequences can lack the tags named with a protein.

Take “Myc-Acly (ATP-citrate lyase) (from UniProt P53396 1-1101)”: the binding result is “binds”.

The values above are taken from paper PMC8497606.
